According to PMC7337067, “Cryo-electron microscopic and X-ray crystallographic analysis of the light-driven proton pump proteorhodopsin reveals a pentameric assembly” (Journal of Structural Biology: X, 2020):
No constants are given. Whether binding was seen depends on the method and setting. Some entries that bind do so weakly or less than the wild type. Sequences can lack the tags named with a protein.

B1: His-tagged green-light absorbing proteorhodopsin (GPR) (protein, UniProt Q6J4G7 19-250)
chain: AGGGDLDASDYTGVSFWLVTAALLASTVFFFVERDRVSAKWKTSLTVSGLVTGIAFWHYMYMRGVWIETGDSPTVFRYIDWLLTVPLLICEFYLILAAATNVAGSLFKKLLVGSLVMLVFGYMGEAGIMAAWPAFIIGCLAWVYMIYELWAGEGKSACNTASPAVQSAYNTMMYIIIFGWAIYPVGYFTGYLMGDGGSALNLNLIYNLADFVNKILFGLIIWNVAVKESSNA
modifications: all-trans retinal covalently linked via a Schiff base to a conserved lysine
B2: green-light absorbing proteorhodopsin (GPR), untagged (natural protein, γ-proteobacterium)
chain: MAGGGDLDASDYTGVSFWLVTAALLASTVFFFVERDRVSAKWKTSLTVSGLVTGIAFWHYMYMRGVWIETGDSPTVFRYIDWLLTVPLLICEFYLILAAATNVAGSLFKKLLVGSLVMLVFGYMGEAGIMAAWPAFIIGCLAWVYMIYELWAGEGKSACNTASPAVQSAYNTMMYIIIFGWAIYPVGYFTGYLMGDGGSALNLNLIYNLADFVNKILFGLIIWNVAVKESSNA
modifications: all-trans retinal covalently linked via a Schiff base to a conserved lysine
notes: N-terminal methionine added to the construct; theoretical MW of the monomer 25.5 kDa; Stop codon placed before the HRV 3C site and decahistidine-tag of pZUDF21, so no tag on the protein; Pentamer by crystallography and cryo-EM; also called untagged GPR; tag-free GPR; source: E. coli BL21(DE3) Rosetta2 (pZUDF21stop); purified from Cymal-5 solubilized membranes (Q Sepharose IEC, Superdex 200 SEC); …

Experiments:
[1] = molecular target: His-tagged green-light absorbing proteorhodopsin (GPR) (γ-proteobacterium) (UniProt Q6J4G7); experiment: native gel or EMSA; BN-PAGE of untagged and His-tagged GPR containing E. coli membranes solubilized in DDM
[2] = molecular target: green-light absorbing proteorhodopsin (GPR), untagged (γ-proteobacterium) (UniProt Q6J4G7); experiment: condition: only acidic conditions (pH not given); SEC; membranes of GPR expressing E. coli solubilized under acidic conditions, analyzed directly by SEC

Row | Binder | binding [1] | binding [2]
1 | B1 | binds | –
2 | B2 | – | no binding
